From article doi:10.1101/467423
No constants are given. Whether binding was seen depends on the method and setting. Some entries that bind do so weakly or less than the wild type.

Amino acid sequences for entries named in this document (tags omitted). A change or cut given only in a name is not applied to a line headed by its entry. Residues count along the entry.
UniProt P13020, 50-174: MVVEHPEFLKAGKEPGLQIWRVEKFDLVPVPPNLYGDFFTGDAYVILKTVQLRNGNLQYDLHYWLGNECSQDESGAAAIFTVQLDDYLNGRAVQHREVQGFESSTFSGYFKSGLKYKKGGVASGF

Assays:
Experiment in all cases: crystal structure
[1] = biological target: Plasmodium berghei actin II, wild type (P. berghei (from the name PbActII; not spelled out)) (UniProt Q4YU79)
[2] = biological target: Plasmodium falciparum actin I A272W mutant (P. falciparum) (UniProt Q8I4X0)
[3] = biological target: Plasmodium falciparum actin I F54Y mutant (P. falciparum) (UniProt Q8I4X0)
[4] = biological target: Plasmodium falciparum actin I G115A mutant (P. falciparum) (UniProt Q8I4X0)
[5] = biological target: Plasmodium falciparum actin I H74Q mutant (P. falciparum) (UniProt Q8I4X0)
[6] = biological target: Plasmodium falciparum actin I, wild type (P. falciparum) (UniProt Q8I4X0)

Measured: binding

Mouse gelsolin segment 1 (from UniProt P13020) (domain or fragment)
binds: all assays above
